Assay results from the supplement of paper PMC10849652.
This is one part of the list.

Amino acid sequences for entries named in this document (tags omitted). A change or cut given only in a name is not applied to a line headed by its entry.
UniProt O60313: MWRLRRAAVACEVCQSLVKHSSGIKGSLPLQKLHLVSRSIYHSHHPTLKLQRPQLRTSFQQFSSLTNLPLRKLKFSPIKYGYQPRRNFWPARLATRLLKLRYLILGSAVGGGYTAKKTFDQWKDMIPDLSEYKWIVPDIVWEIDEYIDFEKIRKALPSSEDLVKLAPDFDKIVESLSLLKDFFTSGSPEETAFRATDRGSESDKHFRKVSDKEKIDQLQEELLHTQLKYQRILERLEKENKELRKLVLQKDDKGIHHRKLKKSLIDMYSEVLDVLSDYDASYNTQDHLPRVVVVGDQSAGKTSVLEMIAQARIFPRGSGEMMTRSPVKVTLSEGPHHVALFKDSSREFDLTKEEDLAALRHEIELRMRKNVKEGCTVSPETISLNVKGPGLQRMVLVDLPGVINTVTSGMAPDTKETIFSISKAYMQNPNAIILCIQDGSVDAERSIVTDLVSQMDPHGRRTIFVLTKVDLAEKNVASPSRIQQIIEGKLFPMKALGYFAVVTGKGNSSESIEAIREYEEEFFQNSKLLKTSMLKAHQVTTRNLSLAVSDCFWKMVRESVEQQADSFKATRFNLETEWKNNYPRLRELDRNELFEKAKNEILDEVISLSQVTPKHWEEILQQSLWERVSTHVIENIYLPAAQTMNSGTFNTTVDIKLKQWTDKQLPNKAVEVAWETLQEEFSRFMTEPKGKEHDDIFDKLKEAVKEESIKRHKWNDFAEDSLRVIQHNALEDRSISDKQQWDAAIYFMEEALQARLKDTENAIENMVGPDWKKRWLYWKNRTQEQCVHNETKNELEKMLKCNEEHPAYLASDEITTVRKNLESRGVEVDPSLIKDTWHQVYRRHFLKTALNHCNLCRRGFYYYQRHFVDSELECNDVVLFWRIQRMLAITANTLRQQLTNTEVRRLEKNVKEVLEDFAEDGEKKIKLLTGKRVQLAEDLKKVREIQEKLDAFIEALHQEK
UniProt Q96MF7: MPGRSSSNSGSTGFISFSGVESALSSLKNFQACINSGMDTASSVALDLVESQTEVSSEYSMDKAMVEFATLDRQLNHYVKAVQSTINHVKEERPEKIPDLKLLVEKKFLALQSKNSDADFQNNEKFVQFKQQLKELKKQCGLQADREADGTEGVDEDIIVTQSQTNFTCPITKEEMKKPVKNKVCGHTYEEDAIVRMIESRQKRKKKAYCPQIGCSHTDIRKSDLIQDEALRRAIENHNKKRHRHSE
UniProt Q01968: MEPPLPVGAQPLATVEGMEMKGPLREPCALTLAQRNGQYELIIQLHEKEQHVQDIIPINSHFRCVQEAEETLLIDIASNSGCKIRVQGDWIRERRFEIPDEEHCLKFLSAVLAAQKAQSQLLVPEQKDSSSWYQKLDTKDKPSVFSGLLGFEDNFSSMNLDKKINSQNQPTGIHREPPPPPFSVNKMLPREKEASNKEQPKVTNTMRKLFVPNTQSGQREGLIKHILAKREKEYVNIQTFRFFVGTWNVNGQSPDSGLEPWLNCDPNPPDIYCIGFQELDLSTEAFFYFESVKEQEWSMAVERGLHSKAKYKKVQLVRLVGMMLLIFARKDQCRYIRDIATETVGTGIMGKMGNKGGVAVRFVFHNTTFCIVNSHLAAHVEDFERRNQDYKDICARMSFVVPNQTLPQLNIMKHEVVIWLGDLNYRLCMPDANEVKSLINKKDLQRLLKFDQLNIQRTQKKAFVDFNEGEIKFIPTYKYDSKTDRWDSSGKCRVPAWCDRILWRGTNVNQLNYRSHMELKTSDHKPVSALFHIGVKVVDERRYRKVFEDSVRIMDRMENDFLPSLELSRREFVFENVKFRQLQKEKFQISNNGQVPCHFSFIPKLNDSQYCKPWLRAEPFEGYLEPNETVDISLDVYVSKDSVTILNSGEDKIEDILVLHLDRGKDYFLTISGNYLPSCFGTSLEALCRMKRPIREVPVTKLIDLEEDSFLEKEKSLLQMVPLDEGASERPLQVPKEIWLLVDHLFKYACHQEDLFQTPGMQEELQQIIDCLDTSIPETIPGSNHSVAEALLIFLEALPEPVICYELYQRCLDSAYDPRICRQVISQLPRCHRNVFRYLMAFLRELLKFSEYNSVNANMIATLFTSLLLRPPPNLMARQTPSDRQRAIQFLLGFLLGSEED
UniProt Q9BZF1: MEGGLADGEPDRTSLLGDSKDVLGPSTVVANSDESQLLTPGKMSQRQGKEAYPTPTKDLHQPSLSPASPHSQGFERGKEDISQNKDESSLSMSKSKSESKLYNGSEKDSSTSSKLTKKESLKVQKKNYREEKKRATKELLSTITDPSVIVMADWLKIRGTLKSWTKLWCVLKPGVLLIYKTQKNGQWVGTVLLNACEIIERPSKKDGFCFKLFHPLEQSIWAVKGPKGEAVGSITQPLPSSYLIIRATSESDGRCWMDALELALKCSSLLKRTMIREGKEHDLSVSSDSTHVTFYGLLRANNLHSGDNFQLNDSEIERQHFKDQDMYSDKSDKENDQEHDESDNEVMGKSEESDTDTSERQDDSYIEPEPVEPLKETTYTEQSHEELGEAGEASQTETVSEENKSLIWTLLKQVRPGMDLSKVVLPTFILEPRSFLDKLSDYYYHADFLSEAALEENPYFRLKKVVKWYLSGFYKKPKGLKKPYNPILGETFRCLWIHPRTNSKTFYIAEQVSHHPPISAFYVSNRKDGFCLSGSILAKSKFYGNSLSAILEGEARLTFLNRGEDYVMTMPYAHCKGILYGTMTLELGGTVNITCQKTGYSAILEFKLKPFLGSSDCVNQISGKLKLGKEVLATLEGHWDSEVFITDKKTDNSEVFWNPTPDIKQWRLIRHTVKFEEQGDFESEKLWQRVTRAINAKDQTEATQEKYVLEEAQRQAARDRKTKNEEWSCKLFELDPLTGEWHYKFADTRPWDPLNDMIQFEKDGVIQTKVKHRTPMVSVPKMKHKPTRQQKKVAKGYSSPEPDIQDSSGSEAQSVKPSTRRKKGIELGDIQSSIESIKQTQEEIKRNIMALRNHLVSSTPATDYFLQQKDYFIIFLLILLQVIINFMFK
UniProt O14841: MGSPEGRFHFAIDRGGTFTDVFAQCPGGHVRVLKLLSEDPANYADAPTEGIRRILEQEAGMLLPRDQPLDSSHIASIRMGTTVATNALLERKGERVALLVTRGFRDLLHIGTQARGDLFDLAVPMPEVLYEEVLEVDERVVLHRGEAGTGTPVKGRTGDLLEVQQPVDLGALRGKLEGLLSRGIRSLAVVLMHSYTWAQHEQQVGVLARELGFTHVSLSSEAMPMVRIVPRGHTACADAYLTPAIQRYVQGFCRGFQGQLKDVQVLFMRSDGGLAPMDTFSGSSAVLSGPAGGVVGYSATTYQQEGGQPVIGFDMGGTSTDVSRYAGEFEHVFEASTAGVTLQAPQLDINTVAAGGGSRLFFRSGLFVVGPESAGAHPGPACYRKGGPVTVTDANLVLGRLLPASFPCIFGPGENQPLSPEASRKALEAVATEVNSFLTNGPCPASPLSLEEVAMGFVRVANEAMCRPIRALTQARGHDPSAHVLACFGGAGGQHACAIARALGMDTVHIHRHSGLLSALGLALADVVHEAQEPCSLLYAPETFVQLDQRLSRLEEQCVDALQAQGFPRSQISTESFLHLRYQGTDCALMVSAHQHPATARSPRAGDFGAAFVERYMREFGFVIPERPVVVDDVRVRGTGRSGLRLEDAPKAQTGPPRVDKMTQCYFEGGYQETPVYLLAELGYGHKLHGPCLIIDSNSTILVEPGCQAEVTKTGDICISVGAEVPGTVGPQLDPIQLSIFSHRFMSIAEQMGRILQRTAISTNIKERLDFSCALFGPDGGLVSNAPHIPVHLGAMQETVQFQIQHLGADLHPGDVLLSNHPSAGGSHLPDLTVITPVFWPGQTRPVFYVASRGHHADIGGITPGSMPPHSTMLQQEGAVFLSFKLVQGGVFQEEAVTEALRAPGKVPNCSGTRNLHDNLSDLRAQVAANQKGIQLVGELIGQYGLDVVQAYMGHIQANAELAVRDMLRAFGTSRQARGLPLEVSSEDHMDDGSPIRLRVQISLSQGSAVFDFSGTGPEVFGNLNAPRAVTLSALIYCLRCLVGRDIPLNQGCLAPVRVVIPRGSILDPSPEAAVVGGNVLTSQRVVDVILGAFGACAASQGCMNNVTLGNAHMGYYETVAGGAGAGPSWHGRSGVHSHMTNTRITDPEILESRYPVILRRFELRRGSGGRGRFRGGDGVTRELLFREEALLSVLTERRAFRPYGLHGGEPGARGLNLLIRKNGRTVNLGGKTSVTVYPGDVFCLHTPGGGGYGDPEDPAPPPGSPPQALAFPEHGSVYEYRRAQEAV
UniProt Q5TFE4: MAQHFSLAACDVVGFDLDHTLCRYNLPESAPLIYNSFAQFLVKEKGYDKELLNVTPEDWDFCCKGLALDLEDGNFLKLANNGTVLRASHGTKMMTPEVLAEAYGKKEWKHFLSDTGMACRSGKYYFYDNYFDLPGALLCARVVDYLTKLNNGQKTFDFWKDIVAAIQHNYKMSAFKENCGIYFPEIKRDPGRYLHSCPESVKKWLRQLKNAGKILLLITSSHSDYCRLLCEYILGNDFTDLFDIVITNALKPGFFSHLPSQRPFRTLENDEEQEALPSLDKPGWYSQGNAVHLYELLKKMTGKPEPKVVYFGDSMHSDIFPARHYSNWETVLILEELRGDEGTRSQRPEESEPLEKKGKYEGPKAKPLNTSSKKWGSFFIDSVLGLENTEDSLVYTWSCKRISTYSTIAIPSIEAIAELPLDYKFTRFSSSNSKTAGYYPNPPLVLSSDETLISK
UniProt Q92636: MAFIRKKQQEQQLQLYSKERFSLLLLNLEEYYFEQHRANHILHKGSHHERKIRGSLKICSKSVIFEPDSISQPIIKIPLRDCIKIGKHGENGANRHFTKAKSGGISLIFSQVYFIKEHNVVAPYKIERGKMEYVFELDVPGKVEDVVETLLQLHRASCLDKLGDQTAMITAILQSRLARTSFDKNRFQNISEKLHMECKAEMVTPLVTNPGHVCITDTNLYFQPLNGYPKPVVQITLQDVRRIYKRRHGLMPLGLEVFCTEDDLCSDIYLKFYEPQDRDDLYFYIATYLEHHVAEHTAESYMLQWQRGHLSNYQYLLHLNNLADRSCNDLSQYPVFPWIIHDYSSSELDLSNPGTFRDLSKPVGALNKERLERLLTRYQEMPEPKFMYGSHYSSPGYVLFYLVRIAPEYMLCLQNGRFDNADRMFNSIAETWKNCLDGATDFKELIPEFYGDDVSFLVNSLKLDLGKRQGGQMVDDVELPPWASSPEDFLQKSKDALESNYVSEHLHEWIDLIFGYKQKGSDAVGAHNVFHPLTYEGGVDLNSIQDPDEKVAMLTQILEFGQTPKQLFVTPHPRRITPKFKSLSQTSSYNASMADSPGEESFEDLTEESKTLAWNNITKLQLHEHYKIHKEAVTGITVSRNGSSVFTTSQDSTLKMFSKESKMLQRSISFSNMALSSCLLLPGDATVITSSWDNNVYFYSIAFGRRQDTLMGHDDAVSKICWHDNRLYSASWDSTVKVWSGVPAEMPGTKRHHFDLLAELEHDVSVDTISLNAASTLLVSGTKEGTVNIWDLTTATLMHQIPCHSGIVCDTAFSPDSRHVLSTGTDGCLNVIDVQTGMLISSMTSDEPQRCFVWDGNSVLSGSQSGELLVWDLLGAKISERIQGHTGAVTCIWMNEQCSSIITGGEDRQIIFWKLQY
UniProt O43482, whole entry, looked up: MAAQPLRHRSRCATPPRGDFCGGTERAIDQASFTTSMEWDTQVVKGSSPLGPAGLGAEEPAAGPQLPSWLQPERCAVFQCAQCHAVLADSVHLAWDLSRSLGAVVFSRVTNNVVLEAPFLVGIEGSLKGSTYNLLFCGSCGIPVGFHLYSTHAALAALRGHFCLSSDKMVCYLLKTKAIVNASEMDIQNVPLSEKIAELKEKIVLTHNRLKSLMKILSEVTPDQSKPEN
UniProt Q7Z417: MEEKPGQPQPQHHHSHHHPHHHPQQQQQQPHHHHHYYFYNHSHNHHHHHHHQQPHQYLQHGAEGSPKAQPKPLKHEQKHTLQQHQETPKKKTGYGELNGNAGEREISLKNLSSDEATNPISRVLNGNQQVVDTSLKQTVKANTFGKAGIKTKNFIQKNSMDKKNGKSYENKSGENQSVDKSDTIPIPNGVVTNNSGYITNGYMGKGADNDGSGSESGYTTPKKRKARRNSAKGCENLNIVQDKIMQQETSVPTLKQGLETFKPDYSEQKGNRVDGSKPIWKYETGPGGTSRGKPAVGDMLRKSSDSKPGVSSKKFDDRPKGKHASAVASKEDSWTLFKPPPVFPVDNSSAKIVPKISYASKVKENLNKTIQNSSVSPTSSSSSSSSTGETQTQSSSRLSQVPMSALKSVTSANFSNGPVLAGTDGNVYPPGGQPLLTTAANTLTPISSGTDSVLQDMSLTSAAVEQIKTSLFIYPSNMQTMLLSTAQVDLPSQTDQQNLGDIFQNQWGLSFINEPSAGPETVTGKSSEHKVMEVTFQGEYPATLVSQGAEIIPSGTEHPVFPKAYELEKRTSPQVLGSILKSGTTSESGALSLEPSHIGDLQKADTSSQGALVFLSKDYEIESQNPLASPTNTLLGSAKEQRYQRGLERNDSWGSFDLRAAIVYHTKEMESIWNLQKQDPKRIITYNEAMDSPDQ

How the values were obtained:
Experiment in all cases: log2 fold change, soluble protein after heating vs DMSO (PISA); higher = thermal stabilisation; K562 cells, 10 uM, 30 min; active = over 0.2 and 3.5 SD of the protein, either way, in both replicates (recomputed)
[1] = compound: C1=CC=C(C=C1)[C@H](COC2=CC3=C(C=C2)NC(=O)N3)NC(=O)C4=CC=CN(C4=O)CC5=CC(=C(C=C5)F)F
Procedure, shortened: (§1)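 K562 cells at 2×10^6 cells/mL were exposed to 10 μM compound for 30 min, then aliquots were heated for 3 min across 48°C-58°C, pooled, and extracted in PBS containing 0.5% NP-40 at 4°C. The supernatant after 21,000xg for 90 min was taken as soluble protein and measured by TMTpro 16plex LC-MS/MS with channel sums equalised. Thermal stability is reported relative to control samples, with values from duplicates. Fold changes are given on a log2 scale.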

[2] = compound: CC1=C(SC2=C1C(=N[C@H](C3=NN=C(N32)C)CC(=O)N)C4=CC=C(C=C4)Cl)C
Procedure, shortened: as §1

[3] = compound: CC1=C2C(=CC=C1)N=C(N(C2=O)C3=CC=CC=C3C)CN4C=NC5=C(N=CN=C54)N
Procedure, shortened: as §1

[4] = compound: Cc1sc2c(c1C)C(c1ccc(Cl)cc1)=N[C@@H](CC(=O)OC(C)(C)C)c1nnc(C)n1-2
Procedure, shortened: as §1

[5] = compound: c1ccc([C@@H]2C[C@H]2NC2CCNCC2)cc1
Procedure, shortened: as §1

Measured: log2 fold change

NT5C3B (UniProt Q969T7)
inactive: [1] 0.001 | [2] -0.023 | [3] 0 | [4] -0.071 | [5] 0.016

NUMB (UniProt P49757)
inactive: [1] 0 | [2] 0.035 | [3] 0.046 | [4] 0.023 | [5] -0.009

NUCB2 (UniProt P80303)
inactive: [1] 0.007 | [2] 0.014 | [3] 0.023 | [4] -0.01 | [5] 0.026

NUTF2 (UniProt P61970)
inactive: [1] 0.037 | [2] 0.078 | [3] 0 | [4] -0.221 | [5] 0.016

NUSAP1 (UniProt Q9BXS6)
inactive: [1] -0.05 | [2] -0.197 | [3] 0.119 | [4] 0.116 | [5] 0.025

NUDT9 (UniProt Q9BW91)
inactive: [1] 0.028 | [2] 0.004 | [3] 0.089 | [4] 0.041 | [5] -0.002

NUDC (UniProt Q9Y266)
inactive: [1] -0.033 | [2] 0.071 | [3] 0.011 | [4] 0.003 | [5] -0.041

P4HB (UniProt P07237)
inactive: [1] -0.003 | [2] -0.009 | [3] -0.015 | [4] 0.011 | [5] 0.038

OPA1 isoform 2 (UniProt O60313)
inactive: [1] -0.054 | [2] 0.028 | [3] 0.021 | [4] -0.03 | [5] -0.037

NUP107 (UniProt P57740)
inactive: [1] -0.02 | [2] -0.043 | [3] 0.051 | [4] 0.052 | [5] 0.025

OCIAD1 (UniProt Q9NX40)
inactive: [1] 0.012 | [2] 0.012 | [3] -0.007 | [4] -0.003 | [5] -0.024

PAAT (UniProt Q9H8K7)
inactive: [1] -0.166 | [2] 0.055 | [3] -0.007 | [4] 0.125 | [5] 0.013

NUP37 (UniProt Q8NFH4)
inactive: [1] -0.033 | [2] 0.049 | [3] 0.022 | [4] -0.02 | [5] 0.052

NUMA1 (UniProt Q14980)
inactive: [1] 0.027 | [2] -0.05 | [3] -0.009 | [4] 0.022 | [5] 0.014

NUP62 (UniProt P37198)
inactive: [1] -0.039 | [2] 0.015 | [3] 0.14 | [4] -0.023 | [5] -0.039

NSMCE2 (UniProt Q96MF7)
inactive: [1] 0.074 | [2] 0.031 | [3] 0.075 | [4] 0.004 | [5] -0.017

NSUN4 (UniProt Q96CB9)
inactive: [1] -0.015 | [2] 0.013 | [3] -0.06 | [4] 0.068 | [5] -0.041

NUDT1 (UniProt P36639)
inactive: [1] 0.556 | [2] -0.043 | [3] 0.048 | [4] -0.137 | [5] 0.038

OCRL (UniProt Q01968)
inactive: [1] -0.123 | [2] 0.058 | [3] 0.025 | [4] 0.003 | [5] 0.003

NSUN7 (UniProt Q8NE18)
inactive: [1] -0.03 | [2] 0.068 | [3] 0.112 | [4] 0.181 | [5] -0.03

NT5C3A (UniProt Q9H0P0)
inactive: [1] -0.039 | [2] -0.019 | [3] -0.079 | [4] 0.017 | [5] -0.077

OSBPL8 (UniProt Q9BZF1)
inactive: [1] -0.051 | [2] -0.071 | [3] 0.007 | [4] -0.018 | [5] -0.002

OCIAD1 (UniProt D6RDK6)
inactive: [1] -0.177 | [2] 0.01 | [3] 0.045 | [4] 0.087 | [5] 0.055

NSRP1 (UniProt Q9H0G5)
inactive: [1] 0.048 | [2] -0.049 | [3] -0.047 | [4] 0.028 | [5] 0.073

OXCT1 (UniProt P55809)
inactive: [1] -0.001 | [2] 0.03 | [3] 0.025 | [4] 0.01 | [5] -0.031

NUP160 (UniProt Q12769)
inactive: [1] -0.013 | [2] 0.043 | [3] 0.038 | [4] 0.014 | [5] 0.044

OGFOD1 (UniProt Q8N543)
inactive: [1] -0.02 | [2] 0.047 | [3] 0.041 | [4] -0.015 | [5] -0.007

P4HA2 (UniProt O15460)
inactive: [1] 0.006 | [2] -0.033 | [3] -0.014 | [4] -0.007 | [5] -0.043

NT5DC3 (UniProt Q86UY8)
inactive: [1] -0.011 | [2] 0.042 | [3] 0.055 | [4] 0.019 | [5] 0.018

ODR4 (UniProt Q5SWX8)
inactive: [1] -0.029 | [2] 0.04 | [3] 0.055 | [4] -0.005 | [5] -0.041

NSUN6 (UniProt Q8TEA1)
inactive: [1] -0.014 | [2] 0.034 | [3] 0.053 | [4] -0.002 | [5] -0.034

OPLAH (UniProt O14841)
inactive: [1] 0.004 | [2] 0.059 | [3] 0.077 | [4] -0.017 | [5] -0.011

OLA1 (UniProt Q9NTK5)
inactive: [1] -0.004 | [2] 0.054 | [3] 0.027 | [4] -0.012 | [5] 0.022

NUDT15 (UniProt Q9NV35)
inactive: [1] 0.029 | [2] 0.07 | [3] -0.005 | [4] -0.024 | [5] -0.024

NUDT4 (UniProt Q9NZJ9)
inactive: [1] -0.052 | [2] 0.04 | [3] 0.05 | [4] 0.017 | [5] -0.023

NT5DC1 (UniProt Q5TFE4)
inactive: [1] -0.036 | [2] 0.075 | [3] 0.006 | [4] 0.021 | [5] 0.011

OTUB1 (UniProt Q96FW1)
inactive: [1] -0.012 | [2] 0.043 | [3] 0.007 | [4] -0.021 | [5] -0.002

NSMAF (UniProt Q92636)
inactive: [1] 0.002 | [2] 0.109 | [3] 0.104 | [4] 0.117 | [5] 0.027

OARD1 (UniProt Q9Y530)
inactive: [1] -0.059 | [2] 0.037 | [3] 0.104 | [4] -0.02 | [5] -0.003

OPTN (UniProt Q96CV9)
inactive: [1] 0.02 | [2] 0.007 | [3] 0.061 | [4] 0.057 | [5] 0.071

NT5DC2 isoform 2 (UniProt Q9H857)
inactive: [1] 0.03 | [2] 0.079 | [3] 0.05 | [4] 0.008 | [5] 0.017

OGN (UniProt P20774)
inactive: [1] -0.147 | [2] -0.058 | [3] 0.075 | [4] 0.045 | [5] -0.377

NUP98 (UniProt P52948)
inactive: [1] -0.041 | [2] 0.032 | [3] 0.071 | [4] -0.005 | [5] -0.011

3 consecutive records from above, for reference:
OPTN (UniProt Q96CV9)
inactive: [1] 0.02 | [2] 0.007 | [3] 0.061 | [4] 0.057 | [5] 0.071

NT5DC2 isoform 2 (UniProt Q9H857)
inactive: [1] 0.03 | [2] 0.079 | [3] 0.05 | [4] 0.008 | [5] 0.017

OGN (UniProt P20774)
inactive: [1] -0.147 | [2] -0.058 | [3] 0.075 | [4] 0.045 | [5] -0.377

The list continues.

OIP5 (UniProt O43482)
inactive: [1] 0.023 | [2] 0.074 | [3] 0.088 | [4] -0.05 | [5] -0.004

NUP133 (UniProt Q8WUM0)
inactive: [1] -0.034 | [2] -0.033 | [3] 0.047 | [4] -0.008 | [5] -0.081

P2RX4 isoform 2 (UniProt Q99571)
inactive: [1] 0.106 | [2] 0.072 | [3] -0.013 | [4] -0.079 | [5] -0.049

OGT (UniProt O15294)
inactive: [1] 0 | [2] 0.008 | [3] 0.037 | [4] -0.016 | [5] -0.005

NUFIP2 (UniProt Q7Z417)
inactive: [1] 0.032 | [2] -0.17 | [3] -0.119 | [4] 0.126 | [5] 0.103

NUCKS1 (UniProt Q9H1E3)
inactive: [1] 0.044 | [2] -0.053 | [3] 0.032 | [4] -0.029 | [5] -0.007

NUP58 (UniProt Q9BVL2)
inactive: [1] 0.017 | [2] 0.036 | [3] 0.015 | [4] -0.012 | [5] 0.025

NUP155 (UniProt O75694)
inactive: [1] -0.088 | [2] 0.114 | [3] 0.024 | [4] -0.024 | [5] -0.043

ORC4 (UniProt O43929)
inactive: [1] -0.098 | [2] 0.008 | [3] 0.118 | [4] 0.005 | [5] 0.012

NUS1 (UniProt Q96E22)
inactive: [1] 0.075 | [2] -0.06 | [3] 0.063 | [4] -0.084 | [5] 0.03
